Source: PubChem BioAssay AID504771 (Drosophila RNAi Screening Center, 2011)
Aim: 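Genes whose knock-down alters aggregation of mutant huntingtin with 46 glutamines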 (follow-up of hits). System: Drosophila S2 cells with copper-inducible mutant huntingtin exon 1 (46 glutamines)-eGFP. Knock-down reagent: long dsRNA against Drosophila genes, 250 ng dsRNA per well. Duration: 3 days of knock-down, then 2 days of copper induction before fixing. Treatment: copper sulfate at 400 µM to switch on Htt-Q46-eGFP expression. Measurement: 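Automated image analysis of GFP-tagged aggregates per well: number, size and intensity against plate mean and SD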. Call rule: 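Primary candidate if any aggregate measure lay more than 2 SD from the plate mean; active only if it then passed checks for off-target effects, reproducibility, independent dsRNAs and a promoter counter-screen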. Meaning of the calls: active = confirmed modifier; inactive = primary candidate not confirmed.
The reagents shown are a selection, not the whole library. 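All genes were primary candidates; inactive means validation failed, not no effect; aggregate scores behind calls are not deposited.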 A plus sign joins genes that one reagent is predicted to hit.

no.	gene	aggregation phenotype	activity call
1	Smg5 (Smg5 nonsense mediated mRNA decay factor)	knock-down raises aggregates	active
2	Idh3a (Isocitrate dehydrogenase 3a)	knock-down raises aggregates	inactive
3	RpLP2 (Ribosomal protein LP2)	knock-down lowers aggregates	inactive
4	Rab26	knock-down raises aggregates	inactive
5	RpS8 (Ribosomal protein S8)	knock-down lowers aggregates	inactive
6	Taf10b (TBP-associated factor 10b)	knock-down raises aggregates	inactive
7	Cpsf100 (Cleavage and polyadenylation specificity factor 100)	knock-down lowers aggregates	active
8	RpS24 (Ribosomal protein S24)	knock-down lowers aggregates	inactive
9	vnc + CG42455	knock-down lowers aggregates	active
10	CG8545	knock-down lowers aggregates	inactive
11	Pi3K68D (Phosphatidylinositol 3-kinase 68D)		active
12	Rrp47 (Ribosomal RNA processing 47)	knock-down lowers aggregates	inactive
13	mRpL44 (mitochondrial ribosomal protein L44)	knock-down lowers aggregates	inactive
14	Rpn3 (Regulatory particle non-ATPase 3)	knock-down lowers aggregates	active
15	RpS2 (Ribosomal protein S2)	knock-down lowers aggregates	inactive
16	AGO1 (Argonaute-1)	knock-down lowers aggregates	inactive
17	pAbp (poly(A) binding protein)	knock-down lowers aggregates	inactive
18	mor (moira)	knock-down lowers aggregates	active
19	CG11019 (retired record)	knock-down lowers aggregates	inactive
